From patent publication US20070191324A1, “Methods for treatment or prophylaxis of aldosterone-mediated pathogenic effects in a subject using an epoxy-steroidal aldosterone antagonist” (priority 1999, published 2007)

Protein sequences, listed by entry. Tags and fused reporters are not part of them. Lines headed by an entry give the natural chain unless they say otherwise; changes in a name come on top.
UniProt P01019: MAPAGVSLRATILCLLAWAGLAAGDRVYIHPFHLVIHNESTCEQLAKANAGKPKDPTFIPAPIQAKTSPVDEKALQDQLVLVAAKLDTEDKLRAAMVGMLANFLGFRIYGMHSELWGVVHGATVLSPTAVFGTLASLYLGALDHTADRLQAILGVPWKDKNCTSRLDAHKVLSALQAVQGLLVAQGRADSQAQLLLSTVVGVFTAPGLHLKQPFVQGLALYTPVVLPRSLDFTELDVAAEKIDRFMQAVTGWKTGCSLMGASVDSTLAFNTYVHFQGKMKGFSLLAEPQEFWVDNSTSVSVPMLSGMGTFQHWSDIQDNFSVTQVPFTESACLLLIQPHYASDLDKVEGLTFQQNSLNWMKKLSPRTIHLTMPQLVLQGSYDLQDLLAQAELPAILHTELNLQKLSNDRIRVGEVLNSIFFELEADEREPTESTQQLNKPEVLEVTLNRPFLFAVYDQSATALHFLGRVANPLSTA

System: captopril-treated saline-drinking SHRSP
Test: Angiotensin II-induced renal damage in captopril-treated saline-drinking SHRSP, Protocol 2 (Example A-8)
Assay type: in vivo, rat (SHRSP/A3N)
Conditions: captopril 50 mg/kg/d; angiotensin II 25 ng/min; eplerenone 100 mg/kg/d
Procedure: Animals. Studies were conducted in accordance with institutional guidelines using male SHRSP/A3N (generations F-75 to F-78), n=37, from our local colony. These animals were bred from NIH stock, derived from the SHRSP/A3N substrain described originally by Okamoto and coworkers (Okamoto K et al. Circ. Res. 34 and 35 (suppl I):I-143-I-153.). All animals were housed in a room maintained on a 12:12-h light:dark-cycle and an ambient temperature of 22±1° C. in the Animal Care Facility at New York Medical College. Rats were weaned at 4 weeks of age and allowed free access to Purina Lab Chow 5001 (Ralston Purina, St. Louis, Mo.) and tap water until the initiation of experimental protocols.
SHRSP were placed on Stroke-Prone Rodent Diet (#39-288, Zeigler Bros Inc., Gardners, Pa.) and 1% NaCl drinking solution ad libitum starting at 8.3 weeks of age. […] Systolic blood pressure and heart rate were measured each week. […]
Assays and Analyses. Systolic blood pressure and heart rate of awake animals were measured by tail-cuff plethysmography using a Natsume KN-210 manometer and tachometer (Peninsula Laboratories Inc., Belmont, Calif.). […] Urinary protein concentration was determined by the sulfosalicylic acid turbidity method. Plasma aldosterone was measured by radioimmunoassay using ^125I-aldosterone as a tracer (Coat-a Count Aldosterone, Diagnostic Products Co., Los Angeles, Calif.). […]

“Angiotensin II: Angiotensin II (human type) infused by osmotic minipump (DRVYIHPF; Angiotensin-2; UniProt P01019 25-32, looked up)” was tested, and the “absolute kidney weight at autopsy” value was 2.12 ± 0.06 g and the “body weight at the end of the experiment” value was 223 ± 7 g.
